## Results of single-concentration screens

The chains behind the UniProt entries cited, without tags or fusion partners. Residues count along the entry.
UniProt I6X8D2, whole entry: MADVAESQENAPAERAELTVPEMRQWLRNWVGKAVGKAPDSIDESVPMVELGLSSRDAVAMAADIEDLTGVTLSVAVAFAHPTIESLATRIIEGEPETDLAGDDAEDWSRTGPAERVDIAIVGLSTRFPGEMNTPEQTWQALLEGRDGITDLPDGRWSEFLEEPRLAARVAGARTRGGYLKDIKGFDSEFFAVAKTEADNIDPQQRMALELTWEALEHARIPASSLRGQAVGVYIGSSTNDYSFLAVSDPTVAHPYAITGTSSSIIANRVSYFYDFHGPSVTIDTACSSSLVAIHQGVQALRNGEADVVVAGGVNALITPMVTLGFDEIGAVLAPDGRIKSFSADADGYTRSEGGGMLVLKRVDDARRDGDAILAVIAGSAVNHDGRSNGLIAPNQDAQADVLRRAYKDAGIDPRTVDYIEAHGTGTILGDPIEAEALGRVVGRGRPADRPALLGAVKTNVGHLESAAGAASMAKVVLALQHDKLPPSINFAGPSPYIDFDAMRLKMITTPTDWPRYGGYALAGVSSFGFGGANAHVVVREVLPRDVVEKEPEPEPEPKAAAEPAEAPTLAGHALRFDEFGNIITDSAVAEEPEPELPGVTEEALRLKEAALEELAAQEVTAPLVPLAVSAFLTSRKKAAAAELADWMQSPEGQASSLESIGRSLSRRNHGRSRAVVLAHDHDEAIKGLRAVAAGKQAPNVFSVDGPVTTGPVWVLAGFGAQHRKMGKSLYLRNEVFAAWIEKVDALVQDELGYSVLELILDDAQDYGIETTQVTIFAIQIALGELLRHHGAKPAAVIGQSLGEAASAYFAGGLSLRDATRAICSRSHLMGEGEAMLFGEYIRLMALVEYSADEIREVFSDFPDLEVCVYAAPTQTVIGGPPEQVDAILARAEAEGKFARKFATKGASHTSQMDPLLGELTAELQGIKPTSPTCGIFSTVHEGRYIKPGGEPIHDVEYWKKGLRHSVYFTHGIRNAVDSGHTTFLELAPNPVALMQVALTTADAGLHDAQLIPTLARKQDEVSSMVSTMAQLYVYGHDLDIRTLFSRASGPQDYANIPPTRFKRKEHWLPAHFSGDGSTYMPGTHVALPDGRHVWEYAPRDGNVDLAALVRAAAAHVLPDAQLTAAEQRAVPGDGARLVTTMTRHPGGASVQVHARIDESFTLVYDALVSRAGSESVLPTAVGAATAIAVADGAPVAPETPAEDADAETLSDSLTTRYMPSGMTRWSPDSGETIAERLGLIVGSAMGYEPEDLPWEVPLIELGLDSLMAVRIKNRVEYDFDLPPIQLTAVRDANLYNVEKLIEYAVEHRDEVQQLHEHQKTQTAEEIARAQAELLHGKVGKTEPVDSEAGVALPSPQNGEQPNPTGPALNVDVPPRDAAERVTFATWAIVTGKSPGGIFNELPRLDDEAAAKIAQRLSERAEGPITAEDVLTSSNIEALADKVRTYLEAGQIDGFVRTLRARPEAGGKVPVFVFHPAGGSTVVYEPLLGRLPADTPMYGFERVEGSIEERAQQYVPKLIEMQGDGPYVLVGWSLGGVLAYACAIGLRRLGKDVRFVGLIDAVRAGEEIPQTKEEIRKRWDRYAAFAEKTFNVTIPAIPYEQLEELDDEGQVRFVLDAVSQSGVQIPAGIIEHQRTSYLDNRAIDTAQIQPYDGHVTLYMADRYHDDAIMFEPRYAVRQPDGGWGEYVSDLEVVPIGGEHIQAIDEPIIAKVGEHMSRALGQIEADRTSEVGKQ
UniProt P9WNZ1, whole entry: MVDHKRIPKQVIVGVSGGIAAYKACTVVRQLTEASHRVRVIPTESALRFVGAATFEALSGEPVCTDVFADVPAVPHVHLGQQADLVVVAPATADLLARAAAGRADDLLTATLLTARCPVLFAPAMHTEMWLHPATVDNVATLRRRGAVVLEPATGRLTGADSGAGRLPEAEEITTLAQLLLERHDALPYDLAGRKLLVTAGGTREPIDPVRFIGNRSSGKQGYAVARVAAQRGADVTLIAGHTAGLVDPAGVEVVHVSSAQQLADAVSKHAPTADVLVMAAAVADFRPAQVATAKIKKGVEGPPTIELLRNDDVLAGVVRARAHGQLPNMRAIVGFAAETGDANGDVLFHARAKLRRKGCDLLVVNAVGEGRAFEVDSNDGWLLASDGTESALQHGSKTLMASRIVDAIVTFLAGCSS
UniProt P9WFT3, whole entry: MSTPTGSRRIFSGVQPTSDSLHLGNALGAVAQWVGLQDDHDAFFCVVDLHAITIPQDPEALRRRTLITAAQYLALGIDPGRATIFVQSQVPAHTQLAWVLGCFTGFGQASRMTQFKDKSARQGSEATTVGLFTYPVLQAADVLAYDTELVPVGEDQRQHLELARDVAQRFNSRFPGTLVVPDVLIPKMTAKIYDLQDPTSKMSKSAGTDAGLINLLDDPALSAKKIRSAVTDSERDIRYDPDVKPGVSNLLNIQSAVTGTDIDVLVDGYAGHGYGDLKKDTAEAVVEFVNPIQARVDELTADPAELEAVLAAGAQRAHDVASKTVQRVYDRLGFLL
UniProt A4I591, 1-473: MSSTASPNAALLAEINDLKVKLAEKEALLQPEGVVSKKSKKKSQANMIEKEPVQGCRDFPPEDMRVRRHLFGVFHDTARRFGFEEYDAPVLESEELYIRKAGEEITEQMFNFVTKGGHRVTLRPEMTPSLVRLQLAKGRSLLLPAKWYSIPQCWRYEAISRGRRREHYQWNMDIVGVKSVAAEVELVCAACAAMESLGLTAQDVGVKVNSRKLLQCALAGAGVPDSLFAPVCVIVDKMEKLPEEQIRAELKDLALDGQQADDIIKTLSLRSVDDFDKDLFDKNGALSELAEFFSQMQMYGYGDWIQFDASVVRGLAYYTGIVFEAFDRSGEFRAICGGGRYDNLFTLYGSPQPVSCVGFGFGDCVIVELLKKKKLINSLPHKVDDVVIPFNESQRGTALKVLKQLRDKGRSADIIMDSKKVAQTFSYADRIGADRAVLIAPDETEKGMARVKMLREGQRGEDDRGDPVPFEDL
UniProt Q4DA54, 1-478: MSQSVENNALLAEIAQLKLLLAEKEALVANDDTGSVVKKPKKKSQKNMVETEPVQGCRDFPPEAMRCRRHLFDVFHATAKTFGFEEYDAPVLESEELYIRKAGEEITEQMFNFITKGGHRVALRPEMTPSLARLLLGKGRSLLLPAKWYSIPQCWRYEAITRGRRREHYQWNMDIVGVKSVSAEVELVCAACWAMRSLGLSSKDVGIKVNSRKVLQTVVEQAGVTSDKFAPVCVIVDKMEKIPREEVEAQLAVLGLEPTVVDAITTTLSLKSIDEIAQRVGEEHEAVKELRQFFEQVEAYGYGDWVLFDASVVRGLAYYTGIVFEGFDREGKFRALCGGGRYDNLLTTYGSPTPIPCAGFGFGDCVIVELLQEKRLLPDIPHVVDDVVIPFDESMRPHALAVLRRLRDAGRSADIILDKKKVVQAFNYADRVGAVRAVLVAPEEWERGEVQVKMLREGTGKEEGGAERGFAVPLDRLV

Data taken from ChEMBL document CHEMBL3988442, “University of Dundee, Small-Polar-MMV Screening Library” (2021).

Pks13 thioesterase: 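Polyketide synthase Pks13, Mycobacterium tuberculosis (UniProt I6X8D2). Enzyme assay of the thioesterase domain of polyketide synthase 13; the read-out is not stated. Compounds at 30 µM. The record gives no direction; the compounds picked for IC50 retests had high values, so higher reads as stronger inhibition. About 67,000 compounds were tested under these conditions; 0.46% (about 300) showed 50% or more at least once.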
Toxoplasma: 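Assay of Toxoplasma gondii numbers, read through their beta-galactosidase reporter with a colour substrate. Concentration: 10 µM. The record gives no direction; the compounds picked for IC50 retests had high values, so higher reads as fewer parasites. About 67,000 compounds were tested under these conditions; 0.38% (about 260) showed 50% or more at least once.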
CoaBC: 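Coenzyme A biosynthesis protein CoaBC, Mycobacterium tuberculosis (UniProt P9WNZ1). Enzyme assay of CoaBC with a phosphate dye (Biomol Green) read at 650 nm. Concentration: 30 µM. Direction is inferred from only a few compounds that gave an IC50; most scored high, so higher reads as stronger inhibition. Most strong results did not repeat in a second test. Size under these conditions: about 67,000 compounds, about 40 of them at 50% or above in at least one test.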
MtTrpRS: 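Tryptophan-tRNA ligase, Mycobacterium tuberculosis (UniProt P9WFT3). Enzyme assay of tryptophanyl-tRNA synthetase; the read-out is not stated. Compounds at 10 µM. Direction is not recorded; retested compounds ran higher, which suggests that high means inhibition. Size under these conditions: about 65,000 compounds, about 64 of them at 50% or above in at least one test.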
LiHisRS: 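Enzyme assay of histidyl-tRNA synthetase; the read-out is not stated. Target: Histidine-tRNA ligase, Leishmania infantum (UniProt A4I591). Concentration: 30 µM. Direction is inferred from retests: higher values go with stronger inhibition. The assay is labelled LdHisRS but filed under L. infantum. Of about 69,000 compounds tested this way, about 410 (0.6%) reached 50% or more in at least one test.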
TcHisRS: 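Histidine-tRNA ligase, Trypanosoma cruzi CL Brener (UniProt Q4DA54). Enzyme assay of histidyl-tRNA synthetase; the read-out is not stated. Compounds at 30 µM. The record gives no direction; compounds that gave an IC50 in retests scored well above the rest, so higher reads as stronger inhibition. Of about 69,000 compounds tested this way, about 31 (0.045%) reached 50% or more in at least one test.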

Each number is a percent effect as filed.
The record does not define 0% and 100%; most values in the screen are far below 50% and negative numbers occur (in some assays of this library far below -100).
The compounds are a random part of those screened.
A dash means the value is not listed here; it may have been measured.

| Compound | Pks13 thioesterase | Toxoplasma | CoaBC | MtTrpRS | LiHisRS | TcHisRS |
|---|---|---|---|---|---|---|
| `COCCn1ccc(NC(=O)CNC(=O)CC(C)(C)C)n1` | 25.36% | -20.43% | -2.658% | 3.254% | 12.5% | 0% |
| `CS(=O)(=O)NCc1cncc2c1CCN(C(=O)c1cccnc1)C2` | -9.4% | - | 4.069% | 0.6206% | 25% | 0.9524% |
| `O=C(CN1CCC(c2cc(=O)n3c(n2)CCCCC3)C1)N1CCCCC1` (stereo not drawn) | 0.2914% | - | 5.353% | 4.812% | 13.68% | 7.463% |
| `CCCC(=O)N1CC[C@@H]2[C@H](CC1)N(Cc1cccc(C)n1)CCS2(=O)=O` | -27.52% | - | 4.863% | -7.681% | 19.3% | 6.452% |
| `[H][C@]12CC[C@]([H])(CC(=O)NC1)N2c1cc(-c2ccccc2F)nc2ccnn12` | - | 35.11% | - | - | - | - |
| `CCc1noc(CN(CC)C(=O)CC2C(=O)NCCN2CC=C(C)C)n1` (stereo not drawn) | -1.72% | 1.783% | 7.006% | -0.4188% | 2.655% | 0.8% |
| `COC[C@]1(O)CCN(C2CCN(c3ccc(OC)cc3)CC2)CC1(C)C` | 0.1091% | 7.47% | 1.11% | -2.102% | 12.9% | 2.632% |
| `Oc1ccc2oc3c(c2c1CN1CCOCC1)CCCC3` | -8.871% | -4.327% | 4.146% | 2.377% | 15% | 3.896% |
| `C[C@@H]1CN(C2CCOCC2)C[C@]12CCN(c1cccnc1)C2=O.O=C(O)C(F)(F)F.O=C(O)C(F)(F)F` | - | 13.09% | - | - | - | - |
| `CS(=O)(=O)NCc1nnc2n1CCN(Cc1cccs1)C2` | -23.3% | -1.99% | 4.884% | 5.493% | 9.023% | 2.762% |
| `[H][C@]12CC[C@]([H])(CN(S(=O)(=O)c3ccc(Cl)cc3Cl)C1)N(C)C2=O` | - | 2.818% | - | - | - | - |
| `O[C@@H]1C[C@@H](c2nc(Cc3ccccc3)no2)N(CC2CC2)C1` | -23.14% | -10.01% | 4.74% | -0.8283% | 25% | 13.86% |
| `COc1cccc(S(=O)(=O)N2C[C@H](OC)[C@]3(CCCO3)C2)c1` | 8.788% | 5.491% | -0.6993% | -0.7026% | 9.929% | 13.16% |
| `N#CCc1ccc(OCC(=O)NS(=O)(=O)c2cccs2)cc1` | -2.713% | 1.121% | 2.593% | 10.5% | 20.63% | -7.071% |
| `O=C(Nc1nc2c(s1)CN(S(=O)(=O)C1CC1)CC2)c1ccc(Cl)s1` | 13.75% | -12.09% | 2.545% | 3.203% | 20.51% | 8.434% |
| `N#Cc1ccccc1CN1C[C@@H]2CC[C@H](C1)N(CC1CC1)C2=O` | -392.4% | - | 4.904% | 1.316% | 23.08% | 0% |
| `O=C(C1CCOCC1)N1CC[C@@H](N2CCOCC2)[C@@H]1Cc1ccccc1` | -5.894% | 2.319% | 5.042% | -3.139% | 9.091% | 0.8264% |
| `COc1cccc2c1OCC(C(=O)NCc1c(C)noc1C)C2` (stereo not drawn) | -19.99% | 7.495% | 0% | 1.956% | 17.6% | 0.9804% |
| `COCC1CC2(CCN(Cc3ccc(C)o3)CC2)CN1C(C)C` (stereo not drawn) | -4.828% | - | 4.348% | 3.393% | 8.219% | 6% |
| `COc1cc(NC2CCCN(c3ncccc3C#N)C2)cc(OC)c1` (stereo not drawn) | 21.4% | -17.15% | 7.12% | -0.9084% | 24.71% | 7.035% |
| `CC(=O)N1CCC2(C1)CN(S(=O)(=O)c1ccccc1)C2` | -31.67% | -4.179% | 2.703% | -9.448% | 19.23% | 8.738% |
| `CCOc1cc(CNC(=O)c2cc(-c3ccccn3)no2)ccn1` | -3.383% | 6.516% | 1.088% | -7.53% | 8.065% | 1.948% |
| `CCSCCC(=O)NC1CCN(C(C)c2ccccc2)CC1` (stereo not drawn) | -5.5% | 0.1608% | 4.762% | 5.464% | 8.036% | 13.79% |
| `Cc1ccc(CN(Cc2cccnc2)C2CC(C)(C)NC(C)(C)C2)s1.O=C(O)CC(O)(CC(=O)O)C(=O)O` | - | 26.07% | - | - | - | - |
| `Cc1ccc(N2Cc3nc(=O)n(C(C)C)n3C2=O)cc1` | -43.06% | -4.884% | 2.02% | -0.2101% | 0% | -5.263% |
| `Cn1ccc(C(=O)NC2CCC23CCN(Cc2nccs2)CC3)c1` (stereo not drawn) | 2.856% | -11.82% | 0.4847% | 2.415% | 9.574% | 8.04% |
| `COC[C@H](C)Nc1cc(C)c2ccc(SC)cc2n1` | 14.75% | 3.569% | 7.805% | -0.6791% | 15% | 9.091% |
| `CC(=O)N1CCC(CN2CCN(Cc3nccn3C)C(C)C2)CC1` (stereo not drawn) | -20.45% | 0.4308% | -4.384% | 0.2915% | 15.38% | -4.215% |
| `COCCN(C)C(C(=O)O)c1cc(Cl)ccc1OC` (stereo not drawn) | -2.797% | 6.058% | -1.518% | 2.999% | -9.375% | 3.191% |
| `O=C(c1cc(-c2cccnc2)[nH]n1)N1CCCC(c2cnccn2)C1` (stereo not drawn) | -6.478% | 23.54% | 3.942% | 12.3% | 0% | 1.515% |
| `COc1cc(C)c(C(C)Nc2ncc(C(N)=O)cc2Cl)cc1OC` (stereo not drawn) | -10.24% | -0.05058% | -0.4577% | -0.6552% | 18.31% | 7.182% |
| `COCc1ncc(CN2CC[C@@](O)(COC)C(C)(C)C2)cn1` | 1% | -6.247% | 1.392% | -1.903% | -1.205% | 4.878% |
| `Cc1cccc(CNC[C@H]2Cn3cc(-c4ccccc4)nc3CO2)n1` | -38.96% | 10.6% | 8.609% | -4.78% | 20.27% | 2.174% |
| `CC(C)c1noc(CN(Cc2ccccc2F)C2CC2)n1` | -6.271% | 12.22% | 10.91% | -1.574% | 14.15% | -0.8368% |
| `COc1ccc(CCC(=O)N2CCCC2Cn2cc(C)cn2)cc1F` (stereo not drawn) | -25.39% | 2.304% | 6.667% | -1.955% | 5.333% | 1.887% |
| `CCCc1cc(N2CCC(NC3CCOCC3)CC2)nc(C)n1` | 1.529% | -17.64% | -1.863% | -4.052% | 2.5% | 4.831% |
| `c1cnc(N2CCOC3(CCN(CC4CCCCC4)CC3)C2)nc1` | -33.83% | - | 11.66% | -0.3524% | 9.489% | 6.011% |
| `CC(C)Oc1ncnc2c1CCN(Cc1ccoc1)CC2.O=C(O)C(F)(F)F` | - | 0.3695% | - | - | - | - |
| `CC(C)NC(=O)CNC(=O)c1csc(Cc2ccccc2F)n1` | -7.222% | 10.19% | 8.414% | 6.207% | 12.94% | 5.025% |
| `O=C(NC1CC1)c1nc(Cn2c(C(F)F)nc3ccccc32)no1` | -3.085% | 7.216% | 3.236% | 0% | 3.529% | 0% |
| `CC(C)n1ccnc1C1CCN(C(=O)c2cc[nH]n2)CC1` | 1.318% | -4.596% | -1.754% | 3.258% | 17.14% | 3.306% |
| `Cc1cnc2n1CCN(C)C21CCN(CC2CC2)CC1` | -24.8% | - | 5% | -0.6347% | 19.66% | 6.952% |
| `Cc1cc(C)n(CC2CCCN2C(=O)c2ccc3c(c2)COC3)n1` (stereo not drawn) | 3.737% | -5.595% | -0.1266% | -2.855% | 8.434% | -4.878% |
| `CC(C)CS(=O)(=O)Nc1ccc2c(c1)OCC(C)(C)C(=O)N2C` | 36.6% | 6.121% | -4.212% | 2.641% | 15.73% | 8.543% |
| `COCC(=O)N1CCn2c(CN3CCN(C)CC3)cnc2C1` | -14.3% | - | 0.7614% | -6.831% | 17.65% | 5.911% |
| `CCc1ccc(C(=O)O)cc1S(=O)(=O)Nc1ccc(=O)n(C)c1` | 9.722% | 1.268% | 0.8403% | -3.259% | 21.37% | 10% |
| `CC(C)c1ccc(C(O)Cn2c(=O)c(C#N)cn(C3CC3)c2=O)cc1` (stereo not drawn) | -8.519% | -16.37% | 1.33% | -6.132% | 2.4% | -0.3802% |

Repeated from the top, 4 entries:

COCCn1ccc(NC(=O)CNC(=O)CC(C)(C)C)n1 gave Pks13 thioesterase: 25.36%; Toxoplasma: -20.43%; CoaBC: -2.658%; MtTrpRS: 3.254%; LiHisRS: 12.5%; TcHisRS: 0%.
CS(=O)(=O)NCc1cncc2c1CCN(C(=O)c1cccnc1)C2 gave Pks13 thioesterase: -9.4%; CoaBC: 4.069%; MtTrpRS: 0.6206%; LiHisRS: 25%; TcHisRS: 0.9524%.
O=C(CN1CCC(c2cc(=O)n3c(n2)CCCCC3)C1)N1CCCCC1 (stereo not drawn) gave Pks13 thioesterase: 0.2914%; CoaBC: 5.353%; MtTrpRS: 4.812%; LiHisRS: 13.68%; TcHisRS: 7.463%.
CCCC(=O)N1CC[C@@H]2[C@H](CC1)N(Cc1cccc(C)n1)CCS2(=O)=O gave Pks13 thioesterase: -27.52%; CoaBC: 4.863%; MtTrpRS: -7.681%; LiHisRS: 19.3%; TcHisRS: 6.452%.